Part of at least one peptide drawing is inferred or uncertain, most often the ends. Residues, ends and D or L forms follow the SMILES beside them. *: point of attachment. FITC = O=C1OC2(c3ccc(O)cc3Oc3cc(O)ccc32)c2ccc(NC(=S)*)cc21
Tested on: Dictyostelium discoideum amoeba cells
Test: Permeation of FITC-labelled peptides into cultured Dictyostelium cells (fluorescence microscopy)
Type: cell-based
Settings: for time for half-maximal permeation / time until peptide becomes visible in cells / time until uptake reaches a maximum: FITC-labelled peptide at 20 micromolar, cultured Dictyostelium cells
Experimental: Peptides were labelled with Fluorescein isothiocyanate (FITC) using a FITC labeling kit as per instructions (Pierce, UK). When added to cell cultures the labeled peptides were visualized using a fluorescent microscope by exciting the FITC with a 488 nm spectral line, argon-ion laser (Excitation wavelength of 494 nm and an Emission wavelength of 518 nm).
AX2 wild type Dictyostelium cells were grown on SM agar plates seeded with Aerobacter aerogenes bacteria (also known as Klebsiella aerogenes) as a food source.
Cupid A ([…]) and Cupid B ([…]) were chemically synthesized labelled with FITC at the amino terminal. The peptides were added to cultured eukaryotic cells of Dictyostelium discoideum amoeba for varying amounts of time up to 2 hours. Cells were then washed and prepared for examination under a fluorescent microscope (FIG. 1). The time courses of permeation were compared to the class 3 CPP, the Antennapedia peptide, pANT which was also labelled with FITC in chemical synthesis (FIG. 2).

Compound	time for half-maximal permeation	time until peptide becomes visible in cells	time until uptake reaches a maximum	cell permeation (fluorescence microscopy) (FITC-labelled peptide, 10 micromolar, 1 hour, Dictyostelium cells)	reversibility of permeation (media with FITC-peptide replaced with peptide-free media, peptide permeated out within a similar time period)
CC[C@H](C)[C@H](NC(=O)[C@H](CCC(N)=O)NC(=O)[C@@H](NC(=O)[C@H](CO)NC(=O)[C@H](CCCNC(=N)N)NC(=S)Nc1ccc2c(c1)C(=O)OC21c2ccc(O)cc2Oc2cc(O)ccc21)C(C)C)C(=O)N[C@@H](Cc1c[nH]c2ccccc12)C(=O)N[C@@H](Cc1ccccc1)C(=O)N[C@@H](CCC(N)=O)C(=O)N[C@@H](CC(N)=O)C(=O)N[C@@H](CCCNC(=N)N)C(=O)N[C@@H](CCCNC(=N)N)C(=O)N[C@@H](C)C(=O)N[C@@H](CCCCN)C(=O)N[C@@H](C)C(=O)N[C@@H](CCCNC(=N)N)C(=O)O [FITC-Cupid A] ({FITC}-RSVQIWFQNRRAKAR-OH)	28 min	≤ 30 min	≤ 100 min	entering cultured cells	
CC[C@H](C)[C@H](NC(=O)[C@H](CCC(N)=O)NC(=O)[C@@H](NC(=O)[C@H](CCCNC(=N)N)NC(=O)[C@H](CCCNC(=N)N)NC(=S)Nc1ccc2c(c1)C(=O)OC21c2ccc(O)cc2Oc2cc(O)ccc21)C(C)C)C(=O)N[C@@H](Cc1c[nH]c2ccccc12)C(=O)N[C@@H](Cc1ccccc1)C(=O)N[C@@H](CCC(N)=O)C(=O)N[C@@H](CC(N)=O)C(=O)N[C@@H](CCCCN)C(=O)N[C@@H](CCCNC(=N)N)C(=O)N[C@@H](C)C(=O)N[C@@H](CCCCN)C(=O)N[C@H](C(=O)N[C@@H](CCCCN)C(=O)N[C@@H](CCCNC(=N)N)C(=O)O)C(C)C [FITC-Cupid B] ({FITC}-RRVQIWFQNKRAKVKR-OH)	17 min	≤ 30 min	≤ 100 min		reversible

— patent US20160310607A1, “CELL TRANSPORT” (CUPID PEPTIDE COMPANY LIMITED, priority 2013, published 2016)
